# Assay results published in PubChem BioAssay AID504834 (National Center for Advancing Translational Sciences (NCATS), 2011).
# Screen size: about 320,000 compounds; about 22,000 (6.9%) were called active. The inconclusive results got no clear call from the source; some entries with a clear call stand among them for comparison. The call rests on the fitted dose curve; in most records, active means well fitted inhibition curve with a large enough effect; inconclusive means small, poorly fitted or top-dose-only effect, or another doubt; inactive means no such curve, though single readings can be large or run the other way. A potency beside an inconclusive call is a rough fit, not a confirmed value.
# Test: Primary qHTS for delayed death inhibitors of the malarial parasite plastid, 96 hour incubation
# Settings: P. falciparum luciferase reporter growth; series mostly up to 28.7 µM; activity change, negative = inhibition: at the top concentration
# Summary of the method: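 Readout is luminescence from an integrated firefly luciferase in P. falciparum. Red cells, 2% hematocrit and 0.05% parasitemia final, were cultured with compound through two parasite generations (96 hours) at 37 C, 5% CO2.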
# On the % scale 0 is the no-effect control and ±100 the full control effect; potency means the concentration at half of the fitted maximal effect.
Structure (SMILES),Potency,"activity change, negative = inhibition"
CCN(CC)CCN1C(=O)c2ccccc2NC1c1ccc(F)cc1 (centres undefined),"inconclusive: 0.522 µM [inhibitor, full curve, poor fit]",
O=C(NCc1cccs1)C(=O)NCC1OCCCN1S(=O)(=O)c1cc(F)ccc1F (centres undefined),,inactive: -10%
COC(=O)C1CN(C(=O)COc2ccc(Cl)cc2C)c2ccccc2O1 (centres undefined),"inconclusive: 10.4 µM [inhibitor, partial curve]",
CCC1Nc2ncnc(N3CCOCC3)c2N(Cc2ccc(C)cc2)C1=O (centres undefined),"inconclusive: 18.5 µM [inhibitor, partial curve, poor fit]",
COc1ccccc1-c1c(C#N)c(SCC(=O)N2CCCC2)nc(C)c1C(N)=O,"inconclusive: 0.0037 µM [inhibitor, full curve, poor fit]",
c1cncc(C(c2nnnn2C2CCCCC2)N2CCN3CCCC3C2)c1 (centres undefined),,inactive: -57.2%
CC1(C)Cc2c(cnn2-c2ccc(F)cc2)C(NC(=O)C2CCC2)C1 (centres undefined),"inconclusive: 18.5 µM [inhibitor, single point]",
CCOc1cc(N2CCOCC2)c(OCC)cc1NC(=O)COC(=O)c1ccc(Cl)cc1N,"inconclusive: 20.8 µM [inhibitor, partial curve, poor fit]",
CN(C)C(CNC(=S)Nc1cccc(Cl)c1)c1cccnc1 (centres undefined),"inconclusive: 10.4 µM [inhibitor, single point]",
CN(c1cccc(Cl)c1)S(=O)(=O)c1cccc(C(=O)NC2=NCCS2)c1,"inconclusive: 5.86 µM [inhibitor, partial curve]",
CC(C(=O)N1CCCC1)N(C)CC(=O)Nc1cccc(F)c1 (centres undefined),"inconclusive: 11.7 µM [inhibitor, single point]",
CC(C)=CCOc1ccc(/C=C/C(=O)c2ccc(OCC=C(C)C)cc2OCC(=O)O)cc1,,inactive: -17.2%
Cc1ccc(C)c(Cn2c(=O)n(-c3ccc(CC(=O)NCc4ccco4)cc3)c(=O)c3sccc32)c1,"inconclusive: 4.15 µM [inhibitor, single point]",
CCOC(=O)Cc1cc(=O)[nH]c(/N=C(\N)Nc2ccc(C)cc2C)n1,,inactive: 19.1%
O=C(Nc1ccc(F)cc1)C1CCCN(S(=O)(=O)c2cccc3nonc23)C1 (centres undefined),active: 3.7 µM,
N/C(=N\OC(=O)c1ccc(Br)cc1)c1ccncc1,,inactive: -23.7%
C[C@@H]1CN(CCCn2c3ccccc3c3ccccc32)C[C@H](C)N1,active: 5.36 µM,
Cc1ccc(CN2CCNC(=O)C2CC(=O)N(C)C(C2CC2)C2CC2)o1 (centres undefined),active: 13.1 µM,
Cc1ccc(C(=O)NC(=S)Nc2ccc(N3CCN(C(=O)c4ccco4)CC3)cc2)cc1,active: 5.22 µM,
C=CCCN(C(C(=O)OC)C(C)C)S(=O)(=O)c1ccccc1Br (centres undefined),"inconclusive: 10.4 µM [inhibitor, partial curve]",
COc1ccc(S(=O)(=O)Nc2cc(C(=O)NC3CCCCCC3)ccc2N2CCOCC2)cc1,"inconclusive: 2.94 µM [inhibitor, partial curve, poor fit]",
O=[N+]([O-])c1cccc(-n2cccc2/C=N/Nc2nc(N3CCCCC3)nc(N3CCCCC3)n2)c1,"inconclusive: 4.15 µM [inhibitor, single point]",
CC(=O)N1c2ccccc2CCc2ccc(N)cc21,"inconclusive: 2.62 µM [inhibitor, full curve]",

Structure (SMILES),Potency,"activity change, negative = inhibition"
CCOc1cc(C(=O)N=c2sccn2C)cc(Br)c1OC,active: 7.38 µM,
COc1ccc(/C=C/C(=O)c2sc(-c3ccc(Cl)cc3)nc2C)cc1,"inconclusive: 3.7 µM [inhibitor, full curve]",
CC(C)CC(=O)Nc1ccc2c(c1)nc(CCN1CCCCC1)n2C,active: 13.1 µM,
CC(C)Cc1nc2oc3c(=O)[nH]cnc3c2c2c1CCC2,"inconclusive: 18.5 µM [inhibitor, single point]",
CNC(=S)N(CCc1ccccc1)Cc1cc2cc(OC)c(OC)cc2[nH]c1=O,"inconclusive: 18.5 µM [inhibitor, single point]",
O=C(CSc1ncn[nH]1)Nc1ccc2c(c1)CCC2,,inactive: 18.1%
CCn1c(Cl)c(C=O)s/c1=N\S(=O)(=O)c1ccccc1,"inconclusive: 18.5 µM [inhibitor, single point]",
Cc1ccc(S(=O)(=O)N(C)CC(=O)N2CCCCCC2)cc1,"inconclusive: 10.4 µM [inhibitor, single point]",
Cc1ccc(C)c(CSc2ncccc2C(=O)O)c1,active: 7.38 µM,
O=C(CC(c1ccccc1)c1ccccc1)NCCO,,inactive: 0%
NC(=O)c1sc2nc(N3CCOCC3)c3c(c2c1N)CCCC3,"inconclusive: 0.329 µM [inhibitor, full curve, poor fit]",
CC(C)(C)C(=O)NCCc1nc2ccccc2n1CC(=O)c1ccc(Cl)cc1,"inconclusive: 16.5 µM [inhibitor, partial curve, poor fit]",
O=C(Nc1ccccc1[N+](=O)[O-])C1=C(O)CCn2c1nc1ccccc12,"inconclusive: 3.29 µM [inhibitor, full curve]",
O=C1CNC(=S)N1C1CCCCCC1,,inactive: 0.748%
O=C(CN1C(=O)/C(=C/c2ccco2)SC1=S)NC1CCS(=O)(=O)C1 (centres undefined),"inconclusive: 18.5 µM [inhibitor, partial curve, poor fit]",
COc1ccc(OC)c(NC(=O)CCN2C(=O)c3ccccc3C2=O)c1,"inconclusive: 10.4 µM [inhibitor, single point]",
CS(=O)(=O)c1nc(-c2ccco2)cc(C(F)(F)F)n1,"inconclusive: 3.29 µM [inhibitor, single point]",
N/C(=N\c1nc2c(c(=O)[nH]1)CCC2)Nc1cccc(Cl)c1,"inconclusive: 11.7 µM [inhibitor, single point]",
COc1cccc(C(=O)N=c2sc3cc(S(C)(=O)=O)ccc3n2C)c1,active: 13.1 µM,
COC(=O)C(=O)C/C(=N/Nc1ncnc2ccccc12)c1ccc(Cl)cc1,"inconclusive: 16.5 µM [inhibitor, single point]",
COc1ccc(-c2[nH]c(-c3ccccc3)nc2SCC(=O)NC2CCCC2)cc1,active: 11.7 µM,
Oc1c(C(Nc2cccc(C(F)(F)F)c2)c2cccnc2)ccc2cccnc12 (centres undefined),active: 3.7 µM,
Cc1ccc(S(=O)(=O)NCCC(=O)Nc2nnc(C3CC3)s2)cc1C,"inconclusive: 18.5 µM [inhibitor, single point]",

Structure (SMILES),Potency,"activity change, negative = inhibition"
O=C(COc1ccccc1F)NCc1ccc(-n2cccc2)cc1,"inconclusive: 18.5 µM [inhibitor, partial curve, poor fit]",
COc1cccc(N2CCN(CC(=O)C34CC5CC(CC(C5)C3)C4)CC2)c1,"inconclusive: 13.1 µM [inhibitor, single point]",
COc1ccccc1C(O)(C(=O)NNc1cccc(C)c1)c1ccccc1OC,active: 2.62 µM,
COc1cccc(NC(=O)[C@H](NC(=O)[C@@H]2Cc3ccccc3CN2)c2ccccc2)c1,"inconclusive: 11.7 µM [inhibitor, single point]",
Cc1cc(C)cc(OC(C)c2ccnc3nc(/N=C/N(C)C)nn23)c1 (centres undefined),"inconclusive: 4.15 µM [inhibitor, partial curve]",
CCN(CC)S(=O)(=O)c1ccc(N2CCOCC2)c(NS(=O)(=O)c2ccc(C)c(C)c2)c1,active: 4.15 µM,
COc1ccc(S(=O)(=O)N(C)C(C)CCc2ccco2)cc1 (centres undefined),"inconclusive: 4.15 µM [inhibitor, single point]",
Cn1c(=Nc2ccc(N3CCOCC3)cc2)ccc2ccccc21,"inconclusive: 0.262 µM [inhibitor, full curve, poor fit]",
CC(C)(O)C#Cc1ccc(C(=O)N2CCCC(CNS(=O)(=O)c3cccs3)C2)o1 (centres undefined),,inactive: 5.31%
Cc1ccc(CNCCCSc2ncccn2)cc1,"inconclusive: 10.4 µM [inhibitor, partial curve, poor fit]",
CC1CCN(C(=S)NC(=O)c2cccc([N+](=O)[O-])c2)CC1,"inconclusive: 10.4 µM [inhibitor, single point]",
COc1ccccc1NC(=O)CN(c1ccccc1F)S(C)(=O)=O,"inconclusive: 18.5 µM [inhibitor, single point]",
O=C(COc1ccccc1)Nc1nc(-c2ccncc2)cs1,"inconclusive: 16.5 µM [inhibitor, partial curve, poor fit]",
COc1ccc(/C=C2\C(=N)N3N=C(CC(=O)N4CCOCC4)SC3=NC2=O)cc1,,inactive: 39.2%
COc1ccc(OC)c(NC(=O)c2cc(S(=O)(=O)N3CCCC3)cn2C)c1,,inactive: 37.6%
c1ccc(CN=C2NN=C(c3ccccc3)CS2)cc1,,inactive: 167%
CC(=O)N1c2ccc(S(=O)(=O)N(C)CC(=O)NC3CCCC3)cc2CC1C (centres undefined),"inconclusive: 3.29 µM [inhibitor, full curve]",
CN(C)C(Cc1ccccc1)C(=O)c1cccs1 (centres undefined),,inactive: 12%
CCc1ccc(-c2nc(CN3CCCC(C(=O)NCCc4ccc(OC)c(OC)c4)C3)c(C)o2)cc1 (centres undefined),"inconclusive: 9.28 µM [inhibitor, partial curve, poor fit]",
CCN1CC(CNC(=O)c2ccc3nc(Cc4cccc(Cl)c4)oc3c2)CC1=O (centres undefined),,inactive: 32.6%
COc1cc(OC)cc(C(=O)NCC2CCCN(Cc3cccc(C(C)=O)c3)C2)c1 (centres undefined),active: 8.28 µM,
CCOc1ccc(NC(=O)CN(C)C(=O)c2ccc(C)c(S(=O)(=O)N3CCCCC3)c2)cc1OCC,"inconclusive: 11.7 µM [inhibitor, single point]",
CCCn1c(C)cc(C(=O)COC(=O)c2ccc(Cl)c(S(=O)(=O)N3CCCC3)c2)c1C,"inconclusive: 11.7 µM [inhibitor, single point]",

# Some of the entries so far, with tabs:
Structure (SMILES)	Potency	activity change, negative = inhibition
Cc1ccc(C)c(Cn2c(=O)n(-c3ccc(CC(=O)NCc4ccco4)cc3)c(=O)c3sccc32)c1	inconclusive: 4.15 µM [inhibitor, single point]	
CCOC(=O)Cc1cc(=O)[nH]c(/N=C(\N)Nc2ccc(C)cc2C)n1		inactive: 19.1%
O=C(Nc1ccc(F)cc1)C1CCCN(S(=O)(=O)c2cccc3nonc23)C1 (centres undefined)	active: 3.7 µM	
